Reference: US20230416411A1
No constants are given. Whether binding was seen depends on the method and setting. Some results given as binding are weak or reduced against the parent protein; the word gives no strength.

Chains of the proteins cited; added tags and fusions are not shown. Lines headed by an entry give the natural chain unless they say otherwise; changes in a name come on top.
UniProt P07766: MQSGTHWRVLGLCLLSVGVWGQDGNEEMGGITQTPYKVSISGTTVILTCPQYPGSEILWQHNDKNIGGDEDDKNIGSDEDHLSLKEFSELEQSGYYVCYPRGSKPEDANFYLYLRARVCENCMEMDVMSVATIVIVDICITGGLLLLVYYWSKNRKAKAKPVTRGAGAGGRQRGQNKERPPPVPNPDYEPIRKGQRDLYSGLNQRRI
UniProt P17643: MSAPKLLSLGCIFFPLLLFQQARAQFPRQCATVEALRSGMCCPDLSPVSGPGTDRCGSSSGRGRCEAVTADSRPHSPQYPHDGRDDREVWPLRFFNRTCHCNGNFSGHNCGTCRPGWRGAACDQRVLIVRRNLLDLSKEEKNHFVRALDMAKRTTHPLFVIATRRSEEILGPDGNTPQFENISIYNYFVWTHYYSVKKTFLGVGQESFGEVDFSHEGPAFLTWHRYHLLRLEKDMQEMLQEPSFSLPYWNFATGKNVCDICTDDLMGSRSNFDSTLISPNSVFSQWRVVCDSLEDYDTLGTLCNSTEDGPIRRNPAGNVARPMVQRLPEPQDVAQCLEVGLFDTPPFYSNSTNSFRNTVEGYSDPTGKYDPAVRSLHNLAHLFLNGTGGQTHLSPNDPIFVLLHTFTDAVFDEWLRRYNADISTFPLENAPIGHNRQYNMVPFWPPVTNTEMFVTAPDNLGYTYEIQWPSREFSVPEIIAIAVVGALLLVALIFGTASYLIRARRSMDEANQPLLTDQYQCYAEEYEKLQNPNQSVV

Tests used:
[1] = target: human CD3 expressed on Jurkat NFAT reporter cells (human) (UniProt P07766); test: flow cytometry on Jurkat NFAT cells, labelled anti-human Fc secondary antibody
[2] = target: human CD3 expressed on Jurkat NFAT reporter cells (human) (UniProt P07766); test: flow cytometry on Jurkat NFAT cells
[3] = target: recombinant TYRP1 (Sino Biologicals) (human) (UniProt P17643); test: SPR, relative active concentration after stress

B1: CD3opt human IgG1 PGLALA (antibody, V domains shown)
VH: EVQLLESGGGLVQPGGSLRLSCAASGFQFSSYAMNWVRQAPGKGLEWVSRIRSKYNNYATYYADSVKGRFTISRDDSKNTLYLQMNSLRAEDTAVYYCVRHTTFPSSYVSYYGYWGQGTLVTVSS
VL: QAVVTQEPSLTVSPGGTVTLTCGSSTGAVTTSNYANWVQEKPGQAFRGLIGGTNKRAPGTPARFSGSLLGGKAALTLSGAQPEDEAEYYCALWYSNLWVFGGGTKLTVLR
Question: Which binding [1] does the source give for B1 here?
Answer: binds

Question: And the binding [2]?
Answer: binds

B2: TYRP1 IgG (antibody, V domains shown)
VH: QVQLVQSGAEVKKPGASVKVSCKASGFNIKDYFLHWVRQAPGQGLEWMGWINPDNGNTVYAQKFQGRVTMTADTSTSTVYMELSSLRSEDTAVYYCTRRDYTYEKAALDYWGQGTLVTVSS
VL: DIQMTQSPSSLSASVGDRVTITCRASGNIYNYLAWYQQKPGKVPKLLIYDAKTLADGVPSRFSGSGSGTDFTLTISSLQPEDVATYYCQHFWSLPFTFGQGTKLEIK
Question: B2 was tested. Which binding [3] did it give?
Answer: binds
